According to paper PMC12140432:
For at least one entry, the source does not settle the construct or the ends of the probe. Where cells or extracts were used, other partners may take part. Negatives hold for the conditions tested.

Test system: PBX1
Assay: EMSA
Details: nuclear extract, poly(dI-dC), LightShift EMSA: 50 ng/ul poly(dI-dC), 2.5% glycerol, 0.05% NP-40, 5 mM MgCl2, 20 fmol biotin DNA, 0.6 ug extract in 20 ul, room temperature 20 min, 5% PAGE in 0.5X TBE, protein in a lysate after overexpression, label: 5' biotin

Row | Sequence | binding result (direct or indirect binding) | binding result
1 | CCCCCCCCCCCCGCCCCCCTCTGAA (double strand) [SFE1A] | binds | 
2 | CGAGGCGAAGGGCGGGGGGCTGCGG (double strand) [SFE1C] | binds | 
3 | TAATGCATTCGGCGGCTATTCCCCG (double strand) [SFE1B] |  | no binding
